# In all, about 46,000 compounds went through this assay and about 900 (2%) were called active. The shares of active, inactive and inconclusive entries below differ from those in the screen. Rule as the data show it: active = ROS induction above about 79% (passing the limit was not always enough); inconclusive = no clear call, values can overlap the other calls.
# Test: ROS inducers in U2OS cancer cells, primary screen, cell-based, H2DCF-DA fluorescence (AID 624156);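 also: 0% = DMSO vehicle median and 100% = reference compound median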
# Details: at 10 µM, active compounds read high
row,Structure (SMILES),ROS induction (% of piperlongumine)
1,C[C@H]1CN([C@@H](C)CO)C(=O)c2cccc(NS(=O)(=O)c3ccc(Cl)cc3)c2O[C@H]1CN(C)Cc1ccccc1,inconclusive: 86.5%
2,Cc1ccc2oc(-c3ccc(Cl)c(NC(=O)COc4ccc(C)c(C)c4)c3)nc2c1,inactive: 1.5%
3,C[C@H]1CN([C@@H](C)CO)C(=O)c2cccc(NC(=O)c3ccc(-c4nccs4)cc3)c2O[C@H]1CN(C)Cc1ccc(C(F)(F)F)cc1,active: 109%
4,Cc1ccc(S(=O)(=O)Nc2ccc3c(c2)CC(=O)N([C@H](C)CO)C[C@@H](C)[C@@H](CN(C)Cc2ccc(C(=O)Nc4ccccc4N)cc2)O3)cc1,inconclusive: 83.8%
5,CNC[C@H]1Oc2c(NC(=O)Nc3c(C)noc3C)cccc2C(=O)N([C@@H](C)CO)C[C@@H]1C,inactive: -16.4%
6,Cc1noc(C)c1S(=O)(=O)Nc1ccc2c(c1)C(=O)N([C@H](C)CO)C[C@H](C)[C@H](CN(C)C(=O)Nc1ccc(C(F)(F)F)cc1)OCCCC[C@@H](C)O2,inconclusive: 82.5%
7,COc1ccc(NC(=O)Nc2ccc3c(c2)CC(=O)N([C@@H](C)CO)C[C@H](C)[C@H](CN(C)Cc2ccc(C(=O)O)cc2)O3)cc1,active: 133%
8,Cc1cccc(CN(C)C[C@@H]2Oc3ncc(-c4ccc(F)cc4)cc3C(=O)N([C@H](C)CO)C[C@@H]2C)c1,inconclusive: 91.1%
9,O=C(NCc1nc2ccccc2[nH]1)c1c(F)c(F)c(F)c(F)c1F,inconclusive: 78.9%
10,C=CC1(C)C[C@H](OC(=O)C(C)CO)[C@H]2C(=C)C(=O)O[C@@H]2C1C(=C)CO (stereo partly drawn),active: 134%
11,Cc1ccc(-c2nc3c(cnn3-c3ccccc3)c(=O)n2-c2cccc(C)c2)cc1,active: 187%
12,C=CCNC(=O)[C@@H]1[C@H]2C(=O)O[C@H](c3ccccc3)[C@H](c3ccccc3)N2[C@H](c2ccc(OCCO)cc2)[C@@]12C(=O)Nc1ccc(C#CCC(C(=O)OC)C(=O)OC)cc12,inconclusive: 87.2%
13,Cc1ccc2oc(-c3cccc(NC(=O)COc4ccc5ccccc5c4)c3)nc2c1,inconclusive: 76.5%
14,CC[N+](C)(CC)CCOC(=O)C1c2ccccc2Oc2ccccc21,inconclusive: 81%
15,COc1ccc(NC(=O)N(C)C[C@@H]2Oc3ccc(NC(=O)C4CC4)cc3CC(=O)N([C@H](C)CO)C[C@H]2C)cc1,active: 120%
16,CN1C(=O)C(O)(CC(=O)c2ccccc2)c2ccccc21 (stereo not drawn),inactive: -12.3%
17,CC(Sc1nc(N2CCOCC2)c2c(c1C#N)CC(C)(C)OC2)C(=O)Nc1ccccc1 (stereo not drawn),inconclusive: 82.7%
18,Cc1ccc(-c2cc(C(F)F)n3ncc(C(=O)NCCCN4CCOCC4)c3n2)cc1,active: 137%
19,C[C@@H]1CN([C@@H](C)CO)C(=O)c2cc(NC(=O)Cc3cn(C)c4ccccc34)ccc2O[C@@H]1CN(C)Cc1ccc2c(c1)OCO2,inactive: 40.2%
20,CC(C)(C)OC(=O)CC[C@@]12N=C(c3ccc(OCCCO)cc3)O[C@@H]1c1ccccc1CN(CCS(=O)(=O)c1ccccc1)C2=O,inactive: 41%
21,COc1ccc(S(=O)(=O)Nc2ccc3c(c2)CC(=O)N([C@@H](C)CO)C[C@@H](C)[C@@H](CN(C)Cc2ccc(C(=O)Nc4ccccc4N)cc2)O3)cc1,inconclusive: 110%
22,Cc1nnc(SCc2cc(=O)[nH]c(N3CCN(Cc4ccccc4)CC3)n2)s1,inactive: -2.67%
23,Cc1nc2nc(SCC(=O)Nc3ccccc3C(F)(F)F)nn2c(C)c1Cc1ccccc1,inactive: 4.93%

# Quoted at random: 3 compounds from above, in no set order.
row,Structure (SMILES),ROS induction (% of piperlongumine)
10,C=CC1(C)C[C@H](OC(=O)C(C)CO)[C@H]2C(=C)C(=O)O[C@@H]2C1C(=C)CO (stereo partly drawn),active: 134%
14,CC[N+](C)(CC)CCOC(=O)C1c2ccccc2Oc2ccccc21,inconclusive: 81%
11,Cc1ccc(-c2nc3c(cnn3-c3ccccc3)c(=O)n2-c2cccc(C)c2)cc1,active: 187%

# Continuation:

row,Structure (SMILES),ROS induction (% of piperlongumine)
1,CCCC1=C(C(=O)OCC)C(c2ccccc2Cl)C(C#N)=C(SC)N1 (stereo not drawn),inconclusive: 77%
2,Cn1c(CC(=O)Nc2ccc(Cl)c(Cl)c2)n[nH]c1=S,inconclusive: 88.9%
3,C[C@H]1CN([C@@H](C)CO)C(=O)c2cc(NS(=O)(=O)c3cn(C)cn3)ccc2O[C@H]1CN(C)C,inactive: -7.85%
4,NNC(=O)Cn1c2ccccc2c2ccccc21,inconclusive: 99.7%
5,COc1ccc2cc(C(C)C(=O)Nc3ccc(OC(F)(F)F)cc3)ccc2c1 (stereo not drawn),inactive: 5.04%
6,C[C@H](CO)N1C[C@H](C)[C@H](CN(C)C(=O)Nc2ccc(F)cc2)Oc2ncc(/C=C/c3ccccc3)cc2C1=O,active: 89.9%
7,CN(C)CCN(C(=O)C1CCCCC1)c1nc2ccc(Br)cc2s1,active: 94.5%
8,COc1cccc(C=C2C(=O)c3ccccc3C2=O)c1OC(C)C,inconclusive: 75%
9,OC(c1nc2ccc(Cl)cc2[nH]1)C(O)c1nc2ccc(Cl)cc2[nH]1 (stereo not drawn),inconclusive: 97%
10,C[C@H]1CN([C@@H](C)CO)C(=O)c2cc(NC(=O)Cc3ccccc3)ccc2O[C@@H]1CN(C)Cc1ccc(C(F)(F)F)cc1,inconclusive: 113%
11,c1ccc(CCNc2ncnc3scc(C4COc5ccccc5O4)c23)cc1 (stereo not drawn),inconclusive: 82.2%
12,CC(C)NC(=O)Nc1ccc2c(c1)CC(=O)N([C@H](C)CO)C[C@@H](C)[C@@H](CN(C)Cc1ccc(Oc3ccccc3)cc1)O2,active: 129%
13,C[C@@H]1CN([C@@H](C)CO)C(=O)c2cc(NC(=O)C3CCCCC3)ccc2O[C@@H]1CN(C)CC1CC1,inconclusive: 614%
14,CC1=C(C(=O)Nc2ccc(Cl)cc2)C(c2cccnc2)n2ncnc2N1 (stereo not drawn),inconclusive: 80.2%
15,C[C@H](CO)N1C[C@H](C)[C@@H](CN(C)C(=O)Nc2cccc3ccccc23)Oc2ccc(NC(=O)c3ccncc3)cc2C1=O,inconclusive: 78.7%
16,CCN1C(=O)c2cccc3c(NC(=O)c4ccc(S(=O)(=O)N5CCCCC5C)cc4)ccc1c23 (stereo not drawn),inconclusive: 76.9%
17,C[C@H](CO)N1C[C@H](C)[C@H](CN(C)C(=O)Nc2ccc3c(c2)OCO3)Oc2ncc(C#Cc3ccc(F)cc3)cc2C1=O,inconclusive: 90.5%
18,C[C@H]1CN([C@@H](C)CO)C(=O)c2cccc(NC(=O)c3ccc(-c4nccs4)cc3)c2O[C@@H]1CN(C)Cc1ccc(-c2ccccc2)cc1,inconclusive: 89.8%
19,CCc1ccc(CNC(=O)CN2C(=O)CSc3ncccc32)cc1,inactive: -16.3%
20,N#CCCN(Cc1ccccc1)S(=O)(=O)c1ccccc1,inactive: -4.55%
21,S=c1nc(-c2ccccc2)n(-c2ccc(Br)cc2)c2c1CCCC2,inconclusive: 80%
22,COc1ccc(C(NC(=O)C2CC=CCC2C(=O)O)c2ccccc2)cc1 (stereo not drawn),inactive: -5.48%
23,C[C@@H]1CN([C@H](C)CO)C(=O)CCCn2cc(nn2)CO[C@H]1CN(C)Cc1cccc(C(=O)O)c1,inconclusive: 89.4%

row,Structure (SMILES),ROS induction (% of piperlongumine)
1,COC(=O)c1c(NC(=O)COc2ccccc2)sc(C(N)=O)c1C,inconclusive: 94%
2,C[C@@H]1CN([C@@H](C)CO)C(=O)Cc2cc(NS(=O)(=O)c3ccccc3)ccc2O[C@@H]1CN(C)Cc1ccncc1,inactive: -1.41%
3,C[C@H]1CN([C@@H](C)CO)C(=O)c2cc(NC(=O)C3CCCCC3)ccc2O[C@@H]1CN(C)Cc1ccc(-c2ccccc2)cc1,inconclusive: 95.2%
4,O=C(CSc1nnnn1-c1ccccc1)N1c2ccccc2CCc2ccccc21,inconclusive: 83%
5,C[C@@H]1CN([C@H](C)CO)C(=O)c2cccc(NC(=O)Nc3ccc4c(c3)OCO4)c2O[C@H]1CN(C)Cc1ccc2c(c1)OCO2,inconclusive: 80.8%
6,C[C@H](CO)N1C[C@H](C)[C@@H](CN(C)Cc2ccc(Oc3ccccc3)cc2)Oc2c(NC(=O)Nc3ccc4c(c3)OCO4)cccc2C1=O,inactive: 20.7%
7,C[C@H](CO)N1C[C@H](C)[C@H](CN(C)C(=O)Nc2cccc3ccccc23)Oc2ncc(C#Cc3ccccc3)cc2C1=O,inconclusive: 99.7%
8,C[C@H]1CN([C@@H](C)CO)C(=O)Cc2cc(NC(=O)NC3CCCCC3)ccc2O[C@@H]1CN(C)C(=O)Nc1ccc(F)cc1,inconclusive: 90.3%
9,COc1ccc2c(c1)C(=O)/C(=C/c1ccc(N(C)C)cc1)CC2,active: 122%
10,N#CC1=C(SCC(=O)c2ccc(F)cc2)NC2(CCCC2)C(C#N)C1=O (stereo not drawn),inconclusive: 102%
11,CSc1nncc(-c2ccc(Cl)cc2)n1,inactive: -14.6%
12,O=C(NO)c1cccc(C(=O)N/N=C/c2cccnc2)c1,inactive: -18%
13,C[C@H](CO)N1C[C@H](C)[C@@H](CN(C)Cc2ccc(-c3ccccc3)cc2)Oc2ccc(NC(=O)CCCN(C)C)cc2C1=O,inconclusive: 144%
14,C[C@@H]1CN([C@H](C)CO)C(=O)Cc2cc(NC(=O)NC3CCCCC3)ccc2O[C@H]1CN(C)Cc1ccc(C(=O)O)cc1,inactive: -6.99%
15,C[C@H]1CN([C@@H](C)CO)C(=O)c2cc(NC(=O)Cc3cn(C)c4ccccc34)ccc2O[C@@H]1CN(C)Cc1ccccc1,inconclusive: 92.9%
16,COc1ccc(Cl)cc1NC(=O)CCCN1C(=O)c2ccccc2C1=O,inactive: -18.4%
17,Cc1cc(-c2cccs2)c2c(N)c(C(=O)c3ccccc3)sc2n1,active: 95.7%
18,COC(=O)COc1c(Sc2ccc([N+](=O)[O-])cc2)c(C)nn1-c1ccccc1,inconclusive: 82%
19,Cc1noc(C)c1NC(=O)N(C)C[C@H]1Oc2ccc(NS(=O)(=O)c3ccccc3)cc2C(=O)N([C@@H](C)CO)C[C@@H]1C,inconclusive: 446%
20,CCCn1c2ccc(C)cc2c2nnc(SCCN3CCOCC3)nc21,active: 142%
21,CNC[C@@H]1Oc2c(NC(=O)Nc3cccc4ccccc34)cccc2C(=O)N([C@@H](C)CO)C[C@H]1C,inactive: -2.51%
22,Cc1noc(C)c1S(=O)(=O)N(C)C[C@@H]1OCCCC[C@@H](C)Oc2ccc(NC(=O)C3CCCCC3)cc2C(=O)N([C@H](C)CO)C[C@@H]1C,inconclusive: 80.9%
